No constants are given. Whether binding was seen depends on the method and setting. In cells and extracts the contact can be indirect. Some results given as binding are weak or reduced against the parent protein; the word gives no strength. Sequences can lack the tags named with a protein.
Target: HAHA-14-3-3ε (UniProt P62259)
Assay: co-IP

By UniProt entry, the sequences of proteins in these tests, tags left out.
UniProt P62259: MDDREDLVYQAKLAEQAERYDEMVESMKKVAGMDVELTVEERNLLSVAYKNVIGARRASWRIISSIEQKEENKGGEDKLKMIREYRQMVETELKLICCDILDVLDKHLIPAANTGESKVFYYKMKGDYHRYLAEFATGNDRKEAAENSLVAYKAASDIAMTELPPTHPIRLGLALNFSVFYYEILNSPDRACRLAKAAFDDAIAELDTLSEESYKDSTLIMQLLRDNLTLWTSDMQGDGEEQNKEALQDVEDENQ

- binding: binds
B1: Activity-dependent neuroprotective protein (Adnp), 6xHis-tagged (protein, UniProt Q9Z103 1-1108)
chain: MFQLPVNNLGSLRKARKTVKKILSDIGLEYCKEHIEDFKQFEPNDFYLKNTTWEDVGLWDPSLTKNQDYRTKPFCCSACPFSSKFFSAYKSHFRNVHSEDFENRILLNCPYCTFNADKKTLETHIKIFHAPNSSAPSSSLSTFKDKNKNDGLKPKQADNVEQAVYYCKKCTYRDPLYEIVRKHIYREHFQHVAAPYIAKAGEKSLNGAVSLGTNAREECNIHCKRCLFMPKSYEALVQHVIEDHERIGYQVTAMIGHTNVVVPRAKPLMLIAPKPQDKKGMGLPPRISSLASGNVRSLPSQQMVNRLSIPKPNLNSTGVNMMSNVHLQQNNYGVKSVGQSYGVGQSVRLGLGGNAPVSIPQQSQSVKQLLPSGNGRSFGLGAEQRPPAAARYSLQTANTSLPPGQVKSPSVSQSQASRVLGQSSSKPPPAATGPPPSNHCATQKWKICTICNELFPENVYSVHFEKEHKAEKVPAVANYIMKIHNFTSKCLYCNRYLPTDTLLNHMLIHGLSCPYCRSTFNDVEKMAAHMRMVHIDEEMGPKTDSTLSFDLTLQQGSHTNIHLLVTTYNLRDAPAESVAYHAQNNAPVPPKPQPKVQEKADVPVKSSPQAAVPYKKDVGKTLCPLCFSILKGPISDALAHHLRERHQVIQTVHPVEKKLTYKCIHCLGVYTSNMTASTITLHLVHCRGVGKTQNGQDKTNAPSRLNQSPGLAPVKRTYEQMEFPLLKKRKLEEDADSPSCFEEKPEEPVVLALDPKGHEDDSYEARKSFLTKYFNKQPYPTRREIEKLAASLWLWKSDIASHFSNKRKKCVRDCEKYKPGVLLGFNMKELNKVKHEMDFDAEWLFENHDEKDSRVNASKTVDKKHNLGKEDDSFSDSFEHLEEESNGSGSPFDPVFEVEPKIPSDNLEEPVPKVIPEGALESEKLDQKEEEEEEEEEDGSKYETIHLTEEPAKLMHDASDSEVDQDDVVEWKDGASPSESGPGSQQISDFEDNTCEMKPGTWSDESSQSEDARSSKPAAKKKATVQDDTEQLKWKNSSYGKVEGFWSKDQSQWENASENAERLPNPQIEWQNSTIDSEDGEQFDSMTDGVADPMHGSLTGVKLSSQQA
